{"source": "patent US9763905B2", "about": "“Therapeutic target for the treatment of cancers and related therapies and methods” (CHILDREN'S MEDICAL CENTER CORPORATION, priority 2013, dated 2017)", "key": {"[1]": {"tested_on": "SK-NSH neuroblastoma cell line", "experiment": "Cell viability assay (Cell Counting Kit-8), Example 5", "assay_type": "cell-based, human", "conditions": "DHA 0-250 μM, TAK-875 0-0.4 μM, 3 and 6 days", "procedure": "Neuroblastoma cell lines used to perform the present studies include: ShSY5Y, IMR-32, SK-NSH, SK-NAS. Melanoma cell lines used include: A2058, A375, and SK-Mel3. Medullary thyroid carcinoma cell line used includes: TT. Malignant peripheral nerve sheath tumor used includes: sNF94.3. Control cell lines used included: human foreskin fibroblast line (Hs27), breast cancer cell lines (MCF-7 and […]), human umbilical vein endothelial cells (HUVEC) and human melanocytes (HMn). ShSY5Y was cultured in MEM/F12 containing 10% heat inactivated fetal bovine serum (FBS) (Invitrogen/GIBCO, Grand Island, N.Y.). IMR-32 was cultured in MEM containing 10% FBS (Invitrogen/GIBCO). SK-NSH was cultured in RPMI-1640 containing 10% FBS (Invitrogen/GIBCO). SK-Mel 3 was cultured in McCoy's 5a containing 10% FBS (Invitrogen/GIBCO). TT was cultured in F-12K containing 10% FBS (ATCC, Manassas, Va.). […]\nCells treated with the GPR40 agonist DHA had growth media that was replaced with each respective media containing 1% FBS and 0.1% FA-free BSA with varying concentrations of DHA (Cayman Chemical, Ann Arbor, Mich.) ranging from 0-250 μM solubilized in ethanol (Pharmco-Aaper, Brookfield, Conn.). […] Following 72 hours (TAK-875) or 144 hours (DHA) of treatment, viable cells were quantified using an absorbance-based cell viability assay (Cell Counting Kit-8, Dojindo, Kumamoto, Japan)."}, "[2]": {"tested_on": "SK-Mel3 human melanoma cell line", "experiment": "Cell viability assay (Cell Titer Blue), Examples 1, 3, 4", "assay_type": "cell-based", "conditions": "DHA 25-250 μM 144 hours, GW9508 25-150 μM 72 hours, TAK-875 0-0.4 μM", "procedure": "(§1) The human foreskin fibroblast (Hs27) and human melanoma (A2058, A375, SK-Mel 3) cell lines were purchased from ATCC (Manassas Va.). Cells were plated in 48-well plates at a concentration of 7.5×10^3cells/well in either DMEM (Hs27, A2058, A375; Invitrogen/GIBCO, Grand Island N.Y.) or McCoy's 5a medium (SK-Mel 3; Invitrogen/GIBCO) supplemented with 10% FBS (Invitrogen/GIBCO) and incubated at 37° C. in a humidified atmosphere with 5% CO2. After 24 hours the medium was replaced with either DMEM (HS27, A2058, A375) or McCoy's 5a Medium (SK-Mel 3) containing 1% heat […] (Invitrogen/GIBCO) and 0.1% FA-free BSA (Invitrogen/GIBCO) with various concentrations of DHA (Martek, Columbia Md.) prepared in 4 μL of ETOH. DHA was provided at 25-250 μM, and in the studies that follow GW9508 was provided at 25-150 μM and TAK-875 was provided at 0-0.4 μM. Controls were treated with 4 μL of ETOH. All concentrations were tested in quadruplicate.\n(§2) Following 144 hours of DHA treatment cells were trypsinized (Trypsin-EDTA; Invitrogen/GIBCO) and viable cells were counted using an absorbance-based cell viability assay (Cell Titer Blue Cell Viability Assay; Promega, Madison Wis.). During the treatment, medium was changed at 72 hours for the DHA studies. Cell counts were reported as a percent of the control cell count. […]\n(§3) Following 72 hours of treatment (GW9508) cells were trypsinized (Trypsin-EDTA; Invitrogen/GIBCO) and viable cells were counted using an absorbance-based cell viability assay (Cell Titer Blue Cell Viability Assay; Promega, Madison Wis.). […]\n(§4) Given the high expression of GPR40 and the negligible expression of GPR120 by the human melanoma cells evaluated, further studies were performed using the selective, potent and orally bioavailable GPR40 agonist, TAK-875 (Selleck Chemicals) consistent with the methods disclosed in Examples 1 and 3. […]"}, "[3]": {"tested_on": "A2058 human melanoma cell line", "experiment": "Cell viability assay (Cell Titer Blue), Examples 1, 3, 4", "assay_type": "cell-based", "conditions": "DHA 25-250 μM 144 hours, GW9508 25-150 μM 72 hours, TAK-875 0-0.4 μM", "procedure": "as §1, §2, §3, §4"}, "[4]": {"tested_on": "A375 human melanoma cell line", "experiment": "Cell viability assay (Cell Titer Blue), Examples 1, 3, 4", "assay_type": "cell-based", "conditions": "DHA 25-250 μM 144 hours, GW9508 25-150 μM 72 hours, TAK-875 0-0.4 μM", "procedure": "as §1, §2, §3, §4"}, "[5]": {"tested_on": "SK-Mel 3 human melanoma cell line", "experiment": "Cell viability assay (Cell Counting Kit-8), Example 5", "assay_type": "cell-based", "conditions": "DHA 0-250 μM, TAK-875 0-0.4 μM, 6 days", "procedure": "(§5) Neuroblastoma cell lines used to perform the present studies include: ShSY5Y, IMR-32, SK-NSH, SK-NAS. Melanoma cell lines used include: A2058, A375, and SK-Mel3. Medullary thyroid carcinoma cell line used includes: TT. Malignant peripheral nerve sheath tumor used includes: sNF94.3. Control cell lines used included: human foreskin fibroblast line (Hs27), breast cancer cell lines (MCF-7 and […]), human umbilical vein endothelial cells (HUVEC) and human melanocytes (HMn). ShSY5Y was cultured in MEM/F12 containing 10% heat inactivated fetal bovine serum (FBS) (Invitrogen/GIBCO, Grand Island, N.Y.). IMR-32 was cultured in MEM containing 10% FBS (Invitrogen/GIBCO). SK-NSH was cultured in RPMI-1640 containing 10% FBS (Invitrogen/GIBCO). SK-Mel 3 was cultured in McCoy's 5a containing 10% FBS (Invitrogen/GIBCO). TT was cultured in F-12K containing 10% FBS (ATCC, Manassas, Va.). […] was cultured in Leibovitz's L-15 containing 10% FBS (ATCC). HUVEC was cultured with EGM-2 Bullet Kit (Lonza, Hopkinton, Mass.). HMn were cultured in MGM-4 (Lonza). All other cell lines were cultured in DMEM with 10% FBS (Invitrogen/GIBCO). Cells were incubated at 37° C. in a humidified atmosphere with 5% CO2. Cells were plated in 96-well plates to approximately 50% confluence prior to initial treatment.\n(§6) Cells treated with the GPR40 agonist DHA had growth media that was replaced with each respective media containing 1% FBS and 0.1% FA-free BSA with varying concentrations of DHA (Cayman Chemical, Ann Arbor, Mich.) ranging from 0-250 μM solubilized in ethanol (Pharmco-Aaper, Brookfield, Conn.). Cells treated with the GPR40 agonist TAK-875 had growth media that was replaced with each respective media containing 10% FBS with varying concentration of TAK-875 (Selleck Chemicals, Houston, Tex.) ranging from 0-0.4 μM solubilized in dimethyl sulfoxide (Sigma-Aldrich, St. Louis, Mo.). […]"}, "[6]": {"tested_on": "A2058 human melanoma cell line", "experiment": "Cell viability assay (Cell Counting Kit-8), Example 5", "assay_type": "cell-based", "conditions": "DHA 0-250 μM, TAK-875 0-0.4 μM, 6 days", "procedure": "as §5, §6"}, "[7]": {"tested_on": "A375 human melanoma cell line", "experiment": "Cell viability assay (Cell Counting Kit-8), Example 5", "assay_type": "cell-based", "conditions": "DHA 0-250 μM, TAK-875 0-0.4 μM, 6 days", "procedure": "as §5, §6"}, "[8]": {"tested_on": "human medullary thyroid carcinoma cell line (TT)", "experiment": "Cell viability assay (Cell Counting Kit-8), Example 5", "assay_type": "cell-based", "conditions": "DHA 0-250 μM, TAK-875 0-0.4 μM, 3 and 6 days", "procedure": "as §5\n(§7) Cells treated with the GPR40 agonist DHA had growth media that was replaced with each respective media containing 1% FBS and 0.1% FA-free BSA with varying concentrations of DHA (Cayman Chemical, Ann Arbor, Mich.) ranging from 0-250 μM solubilized in ethanol (Pharmco-Aaper, Brookfield, Conn.). Cells treated with the GPR40 agonist TAK-875 had growth media that was replaced with each respective media containing 10% FBS with varying concentration of TAK-875 (Selleck Chemicals, Houston, Tex.) ranging from 0-0.4 μM solubilized in dimethyl sulfoxide (Sigma-Aldrich, St. Louis, Mo.). Following 72 hours (TAK-875) or 144 hours (DHA) of treatment, viable cells were quantified using an absorbance-based cell viability assay (Cell Counting Kit-8, Dojindo, Kumamoto, Japan)."}, "[9]": {"tested_on": "human umbilical vein endothelial cells (HUVEC)", "experiment": "Cell viability assay (Cell Counting Kit-8), Example 5", "assay_type": "cell-based", "conditions": "DHA 0-250 μM, TAK-875 0-0.4 μM, 3 and 6 days", "procedure": "as §5, §7"}, "[10]": {"tested_on": "malignant peripheral nerve sheath tumor (MPNST) (sNF94.3) cell line", "experiment": "Cell viability assay (Cell Counting Kit-8), Example 5", "assay_type": "cell-based", "conditions": "DHA 0-250 μM, TAK-875 0-0.4 μM, 3 and 6 days", "procedure": "as §5, §7"}}, "note": "“Also recorded” adds a separate entry of the source. At least one structure is not confirmed: it was looked up by name or label, or the drawing left a doubt."}
{"smiles": "CC/C=C\\C/C=C\\C/C=C\\C/C=C\\C/C=C\\C/C=C\\CCC(=O)O", "note": "[DHA, docosahexaenoic acid]", "values": [{"measurement": "cell viability", "setting": "[1]", "value": "significant decrease"}, {"measurement": "effect on growth / viable cell count (percent of control)", "setting": "[2]", "value": "profound and selective cytotoxic effect"}, {"measurement": "effect on growth / viable cell count (percent of control)", "setting": "[3]", "value": "profound and selective cytotoxic effect"}, {"measurement": "effect on growth / viable cell count (percent of control)", "setting": "[4]", "value": "profound and selective cytotoxic effect"}, {"measurement": "cell viability", "setting": "[5]", "value": "significant decrease in cell viability"}, {"measurement": "cell viability", "setting": "[6]", "value": "significant decrease in cell viability"}, {"measurement": "cell viability", "setting": "[7]", "value": "significant decrease in cell viability"}, {"measurement": "cell viability", "setting": "[8]", "value": "promoted; also recorded: minimal inhibitory affect"}, {"measurement": "cell viability", "setting": "[9]", "value": "minimal change in viability"}, {"measurement": "cell viability", "setting": "[10]", "value": "pronounced effect"}]}
